Assay results: US10905757B2, “Cross-reactive T cell epitopes of HIV, SIV, and FIV for vaccines in humans and cats” (priority 2012, dated 2021)
Entries after “also recorded” stand apart in the source; their conditions may differ. Where two headings read alike, the source gives them in different places. Not every detail of the peptide structures is certain; ends, links or a residue may be inferred. Ends that are not written are not given here.

Legend:
PBMC from HIV+ subjects = experiment: IFNγ ELISpot, PBMC from HIV+ subjects; format: cell-based, human; set-up: key to IFNγ (IFN) response: positive (+); negative (−) response; inhibitory (↓); not done (n); conditions: for IFNγ (IFN) response: HIV^+ subjects compared to HIV^− control group; for pool responders with substantial IFNγ responses to individual 13-15mer peptide: nine Fp14 or Hp15 responders; for (magnitude) IFNγ: average positive values; for (magnitude) IFNγ / Responder Frequency in %, IFNγ: responders to Fp9 or Fp14 peptide pools; for F3 responders with IFNγ responses to individual F3 peptide (number): ten F3 responders tested 1-2 years later, 15 μg/well peptide
Method: 1.0×10^5-2.0×10^5 PBMCs were stimulated with peptides (15 μg peptide/well) in ELISpot plates for 18 hours in AIMS V medium (at 10% normal human serum). The spots were counted with an ELISpot reader and adjusted to spot forming units (SFU) per 10^6 cells.
Positive reactivity was defined at ≥70 SFU/10^6 cells after subtracting the background derived from non-specific peptide control or media control, and the average of 3 HIV-1 negative controls (<30 SFU/10^6 cells).
ELISpot assays. Enzyme-linked immunosorbent spot assays (ELISpot) for IFNγ (R&D Systems, Minneapolis, Minn.) were performed with AIM V medium containing 5% heat-inactivated (56° C., 30 min) human serum as previously described (Abbott et al. (2012)). The PBMC from HIV+ subjects were stimulated with either peptide pool (4-5 consecutive peptides per pool at 5 μg per peptide) or individual peptide (15 μg/well). The peptides were 11-16 aa in length with 8-10 aa overlap. The results were analyzed with an ELISpot reader (MVS Pacific LLC, Minneapolis, Minn.) and adjusted to spot forming units (SFU) per 10^6 cells, after subtraction of the average medium control for each subject. The PBMC from HIV+ subjects were stimulated with T-cell mitogen, phytohemaglutinin A (PHA, 5 μg/mL), as positive control. At a positive threshold of 70 SFU, HIV− subjects had no substantial IFNγ responses (>50 SFU) to HIV and FIV peptide pools.
ELISpot assays. Human enzyme-linked immunosorbent spot assays (ELISpot) (R&D Systems, Cat #XEL285) which measure IFNγ production were performed (Abbott et al. 2011). The positive threshold for human IFNγ responses was >50 spot forming units (SFU)/10^6 cells. The final value for each subject was derived after subtracting the result of each HIV^+ subject with the media control followed by subtraction with the average response of the HIV^− subjects which was rarely more than 10 SFU.

[1] = test system: FIV infection of naïve cat PBMC; experiment: In vitro FIV enhancing/inhibitory (E/I) assay in PBMC from naïve SPF cats (RT titer); format: cell-based
Method: FIG. 35. FIV-enhancing versus inhibitory epitopes on peptides and MAPs used in pilot MAP Study. […] Abbreviation: MAP1 plus MAP2 mix (MAP1+2).
FIG. 36A and 36B. FIV/HIV-1 enhancing versus inhibitory epitopes. […] Four epitope peptides were tested in an in vivo efficacy study with prototype vaccine prime and MAP boosts against pathogenic FIV challenge (see MAP section).
To test the possibility that Fp4-3 peptide may be enhancing FIV infection, we performed an in vitro FIV enhancing/inhibitory analysis with all MAP peptides and immunogens. […]. Since MAP2 consisted of peptides FRT3-3 and FRT3-4 with a natural overlap (FIG. 34), such overlap may have blocked the enhancing activity of peptide FRT3-3 while allowing the inhibitory activity of peptide FRT3-4. […] Moreover, none of the MAP vaccinated cats had early detection or enhancement in viral load compared to the control cats. Perhaps, the strong immunity generated by the MAP2 has blocked the enhancing activity of the MAP1 when boosted together (Group 1, Table 3). To test this possibility, in vitro study is currently undergoing to evaluate whether MAP2 can block FIV enhancing activity of MAP1. Furthermore, more cats will be vaccinated with MAP 1b and MAP2 to determine the levels of cytotoxins generated to peptides Fp14-1, FRT3-3 and FRT3-4. Since these peptides have induced CTL-associated cytotoxin expression in T cells from HIV^+ subjects (FIGS. 31A-31B; FIG. 5 in (Sanou et al. 2013)), these EC peptides may also mediate their in vivo effects by inducing anti-FIV specific CTL activity.
However, only peptide Fp4-3 correlated with the in vitro enhancement induced by MAP1. Since the in vitro E/I assay uses PBMC from naïve specific pathogen free (SPF) cats, it is unlikely that the in vitro stimulation of anti-FIV CTLs occurred in the culture and eliminated the infected cells. More likely, these enhancing or inhibitory peptides induced cytokines (enhancement: IFNγ, TNFα, GM-CSF; inhibition: IFNα, IL10), chemokines (inhibition: MIP1α, MIP1β, SDF-1, RANTES), or cellular restriction factors (inhibition: Trim5α, APOBEC3g) that either enhanced or inhibited FIV/HIV-1 infection. […] IFNγ is produced during inflammatory responses to HIV-1 infection (Ipp and Zemlin 2013). Thus, high levels of antiviral cellular immune responses are needed while minimizing both non-specific and viral-specific activation of CD4^+ T cells which can enhance viral replication (Lane 2010). Removal of the enhancing epitopes on FIV and HIV-1 immunogens will be critical to produce an effective HIV-1 vaccine. To accomplish this goal, we will design a vaccine based on antiviral epitopes directed at inducing viral-specific CD4^+ CTLs, CD8^+ CTLs and polyfunctional T cells, and identifying viral enhancing epitopes to remove from vaccine candidates.

| Sequence | IFNγ (IFN) response (PBMC from HIV+ subjects) | pool responders with substantial IFNγ responses to individual 13-15mer peptide (PBMC from HIV+ subjects) | effect on in vitro FIV infection [1] | (magnitude) IFNγ (PBMC from HIV+ subjects) | Responder Frequency in %, IFNγ (PBMC from HIV+ subjects) [%] | F3 responders with IFNγ responses to individual F3 peptide (number) (PBMC from HIV+ subjects) | also measured |
| --- | --- | --- | --- | --- | --- | --- | --- |
| AEVKLYLKQSLSIA [Fp14-3] | + | 6 of 9 | do not directly enhance or inhibit |  |  |  |  |
| DQEQNTAEVKLYLK [Fp14-1] | + | 3 of 9 | no significant in vitro effect | medium | 33 |  |  |
| FAPARMQCRAWYLEA [Fp9-3] |  |  | inhibited; also recorded: inhibition | medium | 14 |  | IFNγ response of HIV+ subjects (in words) (PBMC from HIV+ subjects; p24 pools and peptides): does not induce IFNγ |
| KKKSGKWRMLIDFRV [F3-3] |  |  |  |  |  | ten | IFNγ response of PBMC from HIV+ subjects (in words) (PBMC from HIV+ subjects; RT peptide pools and peptides): highly conserved among HIV+ subjects; F3 responders with IFNγ responses to individual peptide (PBMC from HIV+ subjects; ten F3 responders tested): 100%; effect on in vitro FIV infection ([1]; listed as FRT3-3): significant enhancement; also recorded: significantly enhanced |
| KLYLKQSLSIANA [Fp14-4] | + | 3 of 9 | do not directly enhance or inhibit |  |  |  |  |
| WRMLIDFRVLNKL [F3-4] |  |  |  |  |  | one | effect on in vitro FIV infection ([1]; listed as FRT3-4): significantly inhibited; also recorded: directly inhibited; also recorded: inhibited only FIV; also recorded: inhibition |
